These are yes or no findings as the source states them, for the method shown.

Chains of the proteins cited; added tags and fusions are not shown. Lines headed by an entry give the natural chain unless they say otherwise; changes in a name come on top. A line that says so, or that is headed by a name, gives the form on record, which may keep a tag or linker. Residues count along the entry.
Full length UFM1, residues 2–83 (P61960, form named): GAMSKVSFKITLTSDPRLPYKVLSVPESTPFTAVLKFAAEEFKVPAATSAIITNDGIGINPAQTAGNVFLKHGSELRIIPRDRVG

Experiment [1] addresses Full length UFM1, residues 2–83 (UniProt P61960). As to the kind of experiment: ITC; VP-ITC, 25 °C; UBA5 peptides (~400 µM) titrated into 20–25 µM binding partner; 25 mM HEPES pH 7.5, 100 mM NaCl; one-site model; a single profile for each interaction; both purified.
Experiment [2] addresses GABARAPL2, residues 3–116 (UniProt P60520). Described as above.

Regarding “UBA5 C-terminal region R2, residues 359–376 (from UniProt Q9GZZ9 359-376) (peptide)”, the binding result in experiment [1] and in experiment [2] was “no binding (tested: KD >100 µM (estimated value))” throughout.

For the origin of these results see publication PMC8304084, “A Concerted Action of UBA5 C-Terminal Unstructured Regions Is Important for Transfer of Activated UFM1 to UFC1” (International Journal of Molecular Sciences, 2021).
